Laboratory results reported in PubChem BioAssay AID493014 (National Center for Advancing Translational Sciences (NCATS), 2011).
This is one part of the list. These are further read-outs of the screen, such as a control signal, another cell line or another target. No call is given for them. Compounds called inactive in the main read-out are mostly missing here. Words in brackets tell the shape of the fitted curve; partial curves, single points and poor fits give uncertain potencies.

Assay: qHTS Assay to Find Inhibitors of Chronic Active B-Cell Receptor Signaling
Conditions: ABC-DLBCL IkBa-CBG/CBR reporter, luminescence ratio (green luciferase fused to IkBa over red control in TMD8 lymphoma cells), 4 h
Procedure, shortened: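 Compounds up to 46 uM were incubated four hours with TMD8 cells whose green CBG68 luciferase is fused to IkappaBalpha; red CBR luminescence normalised the signal, and concentration-effect curves were fitted to fusion, red and ratio data.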

[1] = measured here: CBR red luminescence, cell number
[2] = measured here: IkBa-CBG green luminescence

Structure (SMILES)	AC50 [1]	AC50 [2]
O=C(CCNc1ccc(Cc2ccncc2)cc1)c1cccc([N+](=O)[O-])c1	28.2 µM [falling, single point]	
O=C(CCNC(=O)c1ccco1)Nc1ccc(F)c(Cl)c1	35.5 µM [rising, single point]	
O=C(Nc1ccc(SC(F)F)cc1)C12CCC(CC1)C2	0.651 µM [rising, partial curve, poor fit]	
COc1ccc(C(CCN2CCCCC2)c2c(O)cc(OC)cc2OC)cc1 (configuration not stated)	35.5 µM [rising, single point]	
N#Cc1ccc(C(=O)Nc2nnc(-c3cccs3)o2)cc1	2.24 µM [falling, full curve, poor fit]	
Cc1nc(-c2cccnc2)sc1C(=O)Nc1cccc(C(F)(F)F)c1	35.5 µM [falling, single point]	
Cc1cc(C)c2c(N)c(C(=O)Nc3ncc(C)s3)sc2n1	11.6 µM [falling, partial curve, poor fit]	
COc1ccc([N+](=O)[O-])cc1CSc1nnc(NC(C)=O)s1	7.94 µM [rising, partial curve, poor fit]	
CCOC(=O)CN1C(=O)S/C(=C/c2ccc(C)o2)C1=O	0.631 µM [rising, full curve, poor fit]	
O=C(CN1c2ccccc2Sc2ccccc21)NNC(=O)Nc1ccc(Cl)c(Cl)c1	5.01 µM [falling, partial curve]	
Cn1c(=O)c2c(nc(Br)n2C)n(C)c1=O	23.1 µM [falling, single point]	
COc1ccc(S(=O)(=O)Nc2c(NC3CCCCC3)c3ccccc3oc2=O)cc1Cl	8.91 µM [falling, partial curve]	
C=CCn1c(=O)n(CCOC)c(=O)c2sc3ccccc3c21	0.0651 µM [rising, full curve, poor fit]	
COc1ccc(NC(=O)CCC(=O)Nc2nnc(C(F)(F)F)s2)c(OC)c1	29.1 µM [rising, single point]	
CCOC(=O)c1cc(C)sc1NC(=O)c1ccc(Cl)s1	0.92 µM [rising, partial curve, poor fit]	
Cc1ccnc(NS(=O)(=O)c2ccc(NC(=O)c3c(-c4ccccc4Cl)noc3C)cc2)n1	0.58 µM [falling, partial curve, poor fit]	
O=C(Nc1ccccc1-c1ccccc1)c1ccccc1[N+](=O)[O-]	35.5 µM [rising, single point]	
O=C(NC1CCCC1)C(c1ccncc1)N(CCCN1CCOCC1)C(=O)c1ccc(-c2ccccc2)[nH]1 (configuration not stated)	1.41 µM [rising, full curve, poor fit]	
O=C(COc1ccc(Br)cc1F)NC1CC1	13 µM [rising, partial curve, poor fit]	
C=CCN(c1ccccc1)S(=O)(=O)c1cccc(C(=O)Nc2nnc(SCC)s2)c1	20.6 µM [falling, single point]	
O=C(Nc1nnc(-c2cccnc2)o1)c1cccc(Cl)c1	4.47 µM [falling, full curve]	

Structure (SMILES)	AC50 [1]	AC50 [2]
CCN1C(=O)CC(NNC(=O)c2ccccc2)C1=O (configuration not stated)	20 µM [falling, single point]	
CCN(CC(=O)Nc1ccc2c(c1)OCCO2)C(=O)C1CC(=O)N(c2ccc(OC)cc2OC)C1 (configuration not stated)	1.46 µM [rising, full curve]	
Cc1nn(Cc2ccccc2)c2c1C(c1cccnc1)C(C#N)=C(N)O2 (configuration not stated)		23.1 µM [falling, partial curve, poor fit]
O=C(NC(=S)N1CCN(c2ccccc2)CC1)c1c(F)cccc1F	8.91 µM [rising, partial curve]	15.8 µM [falling, partial curve, poor fit]
N#Cc1ccccc1Sc1ccccc1C(=O)OCC(=O)N1CCN(C(=O)c2ccco2)CC1	22.4 µM [rising, single point]	
CCCSc1ccc([C@@H]2[C@H]3C(=O)N(CC)C(=O)[C@H]3[C@]3(C(=O)OC)CCCN23)cc1		4.11 µM [rising, partial curve, poor fit]
N#C/C(=C\c1ccc(-c2ccc([N+](=O)[O-])cc2)o1)C(=O)Nc1nc(-c2cccs2)cs1	4.47 µM [rising, single point]	
Cc1ccc(SCCNC(=O)c2ccc(C)c([N+](=O)[O-])c2)cc1	11.2 µM [rising, partial curve, poor fit]	
O=C(Nc1ccc2c(c1)OCO2)c1ccc(S(=O)(=O)N2CCCC2)cc1	15.8 µM [falling, single point]	
CN(C(=O)CN1C(=O)S/C(=C\c2ccc(F)cc2)C1=O)C1CCS(=O)(=O)C1 (configuration not stated)	11.2 µM [falling, single point]	
Cc1ccc2c(c1)OC(=O)CC2c1ccccc1 (configuration not stated)	23.1 µM [rising, single point]	
COc1cc(CNCCN2CCOCC2)ccc1OCc1c(Cl)cccc1Cl	10.3 µM [falling, partial curve, poor fit]	
COc1ccc(-c2csc3ncn(Cc4ccccc4)c(=O)c23)cc1	35.5 µM [falling, single point]	
Cc1c(Nc2cc(Cl)c3nonc3c2[N+](=O)[O-])c(=O)n(-c2ccccc2)n1C	10 µM [falling, partial curve]	6.31 µM [rising, full curve, poor fit]
CC(=O)Nc1c(C(=O)Nc2ccc3c(c2)OCO3)oc2ccccc12	8.91 µM [falling, partial curve, poor fit]	
Cc1csc(NC(=O)CSc2nnc(-c3ccoc3C)o2)n1	29.1 µM [falling, single point]	
Cc1nnc(SCC(=O)N(C)C2CCCCC2)n1C	29.1 µM [rising, single point]	
Nc1ccccc1Sc1nc2ccccc2[nH]1	12.6 µM [falling, partial curve]	35.5 µM [rising, partial curve, poor fit]
COc1ccc2c(c1)C(=O)N(c1ccccc1OC)C(=O)C2(C)C	35.5 µM [rising, single point]	
C#CCOc1ccc2c(C)cc(=O)oc2c1	3.55 µM [rising, full curve, poor fit]	
O=C(NCc1ccccc1)C1=C[C@@H](c2csc3ccccc23)C[C@@H](OCCCCO)O1	35.5 µM [falling, single point]	

Structure (SMILES)	AC50 [1]	AC50 [2]
Cc1ccc(NC(=S)N2CCC(c3ccccc3)C2)c(Cl)c1 (configuration not stated)	0.355 µM [rising, full curve, poor fit]	
NNC(=O)c1ccc([N+](=O)[O-])c(CS(=O)(=O)c2ccc(Cl)cc2)c1	2.82 µM [rising, partial curve, poor fit]	
CC(=O)Nc1cccc(NC(=O)Nc2ccc(C(C)=O)cc2)c1	13 µM [falling, partial curve, poor fit]	
O=C(O)C(Cc1c[nH]c2ccccc12)N1Cc2ccccc2C1=O (configuration not stated)	11.2 µM [falling, partial curve]	
O=C(NC(=S)NCC1CCCO1)c1ccccc1 (configuration not stated)	20.6 µM [rising, single point]	
N#C/C(=C\c1c(N2CCCCC2)nc2ccccn2c1=O)S(=O)(=O)c1ccccc1	1 µM [falling, full curve, poor fit]	2.82 µM [rising, full curve]
Cc1ccc(S(=O)(=O)C2C(=O)NC3(C)CC2c2ccccc2O3)cc1 (configuration not stated)	29.1 µM [falling, single point]	
CCC(C)NC(=O)c1cc(-c2ccc(OC)cc2)on1 (configuration not stated)	8.2 µM [falling, partial curve, poor fit]	
CN(C)c1ccc(/C=N/Nc2ccc(-n3ccnc3)nn2)cc1	29.1 µM [rising, single point]	
COc1ccc(NC(=S)N(CCO)Cc2cc3c(C)cc(C)cc3[nH]c2=O)cc1	28.2 µM [falling, single point]	
CCOC(=O)/C=C/C(=O)OCC(=O)Nc1ccc([N+](=O)[O-])cc1	22.4 µM [rising, single point]	
c1ccc2c(c1)CNC1(CCCCC1)C2	2.31 µM [rising, partial curve, poor fit]	
Cc1ccc(C)c(NC(=S)N/N=C/C(C)c2ccccc2)c1 (configuration not stated)	12.6 µM [rising, single point]	
COC(=O)c1cc2c(ccn2-c2ccc(F)cc2)n1Cc1ccc(C#N)cc1	2.31 µM [rising, full curve]	
CC(=O)Nc1ccc(Nc2ccc(N3C(=O)CCCC3=O)cc2[N+](=O)[O-])cc1	18.4 µM [rising, partial curve, poor fit]	
COc1ccc(-c2cn3c(C)c(C(=O)NCCN4CCOCC4)sc3n2)cc1	8.91 µM [falling, partial curve, poor fit]	
CC(C)(O)C#Cc1ccc(C(=O)N2CCN(c3ccc(F)cc3)CC2)cc1	25.1 µM [falling, single point]	
C=C(C)C(=O)Oc1ccc(N2C(=O)CCC2=O)cc1	12.6 µM [falling, partial curve, poor fit]	
COc1ccc(OCCC(=O)OCC(=O)NCc2ccco2)cc1	35.5 µM [falling, single point]	17.8 µM [rising, partial curve, poor fit]
CC(=O)Nc1nnc(SCc2ccc(C(=O)Nc3ccccc3F)cc2)s1	3.98 µM [falling, partial curve]	

Quoted from the listing.
AC50 [1], `C=C(C)C(=O)Oc1ccc(N2C(=O)CCC2=O)cc1` reads 12.6 µM [falling, partial curve, poor fit]
AC50 [1], `COc1ccc(-c2cn3c(C)c(C(=O)NCCN4CCOCC4)sc3n2)cc1` reads 8.91 µM [falling, partial curve, poor fit]
AC50 [1], `CC(=O)Nc1cccc(NC(=O)Nc2ccc(C(C)=O)cc2)c1` reads 13 µM [falling, partial curve, poor fit]
AC50 [1], `Cc1ccc(C)c(NC(=S)N/N=C/C(C)c2ccccc2)c1` (configuration not stated) reads 12.6 µM [rising, single point]
AC50 [1], `COC(=O)c1cc2c(ccn2-c2ccc(F)cc2)n1Cc1ccc(C#N)cc1` reads 2.31 µM [rising, full curve]
